No constants are given. Whether binding was seen depends on the method and setting. Binding seen in cells or lysates may run through a third protein. A yes stands for co-enrichment or nearness to the bait. Other partners may have been found. For some of these results: No binding means not detected with the bait.

Sequences of proteins named here, by UniProt entry; tags and fusion partners are left off.
UniProt P12504: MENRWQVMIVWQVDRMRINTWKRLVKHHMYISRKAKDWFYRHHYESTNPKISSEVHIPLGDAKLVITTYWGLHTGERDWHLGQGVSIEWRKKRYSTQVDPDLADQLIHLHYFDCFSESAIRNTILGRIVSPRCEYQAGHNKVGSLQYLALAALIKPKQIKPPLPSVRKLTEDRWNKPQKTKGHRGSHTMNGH
UniProt P12520: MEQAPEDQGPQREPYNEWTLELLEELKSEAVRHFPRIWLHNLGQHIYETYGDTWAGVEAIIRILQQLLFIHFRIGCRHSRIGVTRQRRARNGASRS

The values below come from paper PMC3486646.

In test [1] the target is Staufen1-TAP (UniProt O95793). As to the kind of experiment: affinity purification with mass spectrometry + pull-down; Staufen1-TAP eluates from HIV-1-expressing cells; mass spectrometry and/or western blotting.
A further test deals with T1, Staufen1-TAP, O95793.
T1 chain: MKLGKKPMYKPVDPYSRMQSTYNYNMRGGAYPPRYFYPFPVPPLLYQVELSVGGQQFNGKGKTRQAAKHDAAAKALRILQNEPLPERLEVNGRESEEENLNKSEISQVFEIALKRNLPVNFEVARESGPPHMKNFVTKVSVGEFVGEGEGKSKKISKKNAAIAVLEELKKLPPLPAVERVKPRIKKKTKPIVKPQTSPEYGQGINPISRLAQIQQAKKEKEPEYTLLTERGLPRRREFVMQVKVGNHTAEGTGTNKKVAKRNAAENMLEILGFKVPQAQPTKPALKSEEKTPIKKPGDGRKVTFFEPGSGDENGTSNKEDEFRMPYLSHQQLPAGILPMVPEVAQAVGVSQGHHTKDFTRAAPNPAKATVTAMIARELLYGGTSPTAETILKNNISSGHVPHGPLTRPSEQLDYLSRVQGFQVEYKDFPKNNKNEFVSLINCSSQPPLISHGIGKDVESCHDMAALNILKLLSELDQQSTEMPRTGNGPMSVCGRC
As to the kind of experiment: affinity purification with mass spectrometry; tandem affinity purification of Staufen1-TAP from lysates of stable 293T cells, mock or pNL4-3 transfected; eluates on SDS-PAGE, 23 gel slices, in gel trypsin digestion, LC-MS/MS; FDR less than 1%. The note with it: remark: other sources report otherwise.

In test [2] the target is Staufen1-TAP (UniProt O95793). Described as above.

For the molecule Vif (from UniProt P12504 1-192), the binding entry with Staufen1-TAP [1] was “no binding”.
As for Vpr (from UniProt P12520 1-96), the binding result with Staufen1-TAP [1] was “no binding”.

B1: Calnexin, P27824 21-592 (protein)
chain: HDGHDDDVIDIEDDLDDVIEEVEDSKPDTTAPPSSPKVTYKAPVPTGEVYFADSFDRGTLSGWILSKAKKDDTDDEIAKYDGKWEVEEMKESKLPGDKGLVLMSRAKHHAISAKLNKPFLFDTKPLIVQYEVNFQNGIECGGAYVKLLSKTPELNLDQFHDKTPYTIMFGPDKCGEDYKLHFIFRHKNPKTGIYEEKHAKRPDADLKTYFTDKKTHLYTLILNPDNSFEILVDQSVVNSGNLLNDMTPPVNPSREIEDPEDRKPEDWDERPKIPDPEAVKPDDWDEDAPAKIPDEEATKPEGWLDDEPEYVPDPDAEKPEDWDEDMDGEWEAPQIANPRCESAPGCGVWQRPVIDNPNYKGKWKPPMIDNPSYQGIWKPRKIPNPDFFEDLEPFRMTPFSAIGLELWSMTSDIFFDNFIICADRRIVDDWANDGWGLKKAADGAAEPGVVGQMIEAAEERPWLWVVYILTVALPVFLVILFCCSGKKQTSGMEYKKTDAPQPDVKEEEEEKEEEKDKGDEEEEGEEKLEEKQKSDAEEDGGTVSQEEEDRKPKAEEDEILNRSPRNRKPRRE
Take B1: the binding entry in the test with Staufen1-TAP, O95793 is recorded as “binds”.

B2: Upf3b (protein, UniProt Q9BZI7 1-483)
chain: MKEEKEHRPKEKRVTLLTPAGATGSGGGTSGDSSKGEDKQDRNKEKKEALSKVVIRRLPPTLTKEQLQEHLQPMPEHDYFEFFSNDTSLYPHMYARAYINFKNQEDIILFRDRFDGYVFLDNKGQEYPAIVEFAPFQKAAKKKTKKRDTKVGTIDDDPEYRKFLESYATDNEKMTSTPETLLEEIEAKNRELIAKKTTPLLSFLKNKQRMREEKREERRRREIERKRQREEERRKWKEEEKRKRKDIEKLKKIDRIPERDKLKDEPKIKVHRFLLQAVNQKNLLKKPEKGDEKELDKREKAKKLDKENLSDERASGQSCTLPKRSDSELKDEKPKRPEDESGRDYREREREYERDQERILRERERLKRQEEERRRQKERYEKEKTFKRKEEEMKKEKDTLRDKGKKAESTESIGSSEKTEKKEEVVKRDRIRNKDRPAMQLYQPGARSRNRLCPPDDSTKSGDSAAERKQESGISHRKEGGEE
As for B2, in the test with Staufen1-TAP [2], the binding entry was “binds”.
